Format in all cases: cell-based
Experiment [1] concerns RPMI-LR5 cells. Briefly: XTT cytotoxicity, RPMI-LR5. The protocol: (§1) The cytotoxic activity of the novel family was evaluated against various tumor cells, including myeloma cells, acute lymphoblastic leukemia cells, acute monocytic leukemia cells, chronic myelogenous leukemia cells, pancreatic cancer cells, breast cancer cells, uterine sarcoma cells, cervix adenocarcinoma cells, ovary cancer cells, melanoma cells, osteosarcoma cells, prostate cancer cells, lung cancer cells, neuroblastoma cells and colorectal adenocarcinoma cells by XTT assay.

Experiment [2] relates to MES-SA/DX5 cells. Briefly: XTT cytotoxicity, MES-SA/DX5. The note with it: Homo sapiens. The protocol:
as §1

In experiment [3] the test system is MM1.S cells. Put plainly: XTT cytotoxicity, MM1.S. The note with it: Homo sapiens. The protocol: as §1
For experiment [4], the system named is RPMI-MR20 cells. Put plainly: XTT cytotoxicity, RPMI-MR20. The protocol:
as §1

Experiment [5] deals with MM1.R cells. Put plainly: XTT cytotoxicity, MM1.R. Conditions: MM.1R. The protocol: as §1
For experiment [6], the system named is RPMI-DOX40 cells. Put plainly: XTT cytotoxicity, RPMI-DOX40. The protocol: as §1

Take `COc1cc2c(c(OC)c1OC)-c1ccc(OC)c(=O)cc1[C@@H](NC(C)=O)CC2` [Colchicine, reference compound]: the IC50 was above 0.06 µM in experiment [1]; 0.7 µM in experiment [2]; 0.013 µM in experiment [3]; 0.033 µM in experiment [4]; 0.27 µM in experiment [5]; above 0.06 µM in experiment [6].

The record behind these values is patent US20260226037A1, “MICROTUBULE TARGETING AGENTS” (ARIEL SCIENTIFIC INNOVATIONS LTD., priority 2022, published 2026).
